These results are taken from paper PMC11128410.

By UniProt entry, the sequences of proteins in these tests, tags left out. Where a name states a change or a piece, a line headed by the entry shows the natural chain unless it says otherwise.
UniProt O94762: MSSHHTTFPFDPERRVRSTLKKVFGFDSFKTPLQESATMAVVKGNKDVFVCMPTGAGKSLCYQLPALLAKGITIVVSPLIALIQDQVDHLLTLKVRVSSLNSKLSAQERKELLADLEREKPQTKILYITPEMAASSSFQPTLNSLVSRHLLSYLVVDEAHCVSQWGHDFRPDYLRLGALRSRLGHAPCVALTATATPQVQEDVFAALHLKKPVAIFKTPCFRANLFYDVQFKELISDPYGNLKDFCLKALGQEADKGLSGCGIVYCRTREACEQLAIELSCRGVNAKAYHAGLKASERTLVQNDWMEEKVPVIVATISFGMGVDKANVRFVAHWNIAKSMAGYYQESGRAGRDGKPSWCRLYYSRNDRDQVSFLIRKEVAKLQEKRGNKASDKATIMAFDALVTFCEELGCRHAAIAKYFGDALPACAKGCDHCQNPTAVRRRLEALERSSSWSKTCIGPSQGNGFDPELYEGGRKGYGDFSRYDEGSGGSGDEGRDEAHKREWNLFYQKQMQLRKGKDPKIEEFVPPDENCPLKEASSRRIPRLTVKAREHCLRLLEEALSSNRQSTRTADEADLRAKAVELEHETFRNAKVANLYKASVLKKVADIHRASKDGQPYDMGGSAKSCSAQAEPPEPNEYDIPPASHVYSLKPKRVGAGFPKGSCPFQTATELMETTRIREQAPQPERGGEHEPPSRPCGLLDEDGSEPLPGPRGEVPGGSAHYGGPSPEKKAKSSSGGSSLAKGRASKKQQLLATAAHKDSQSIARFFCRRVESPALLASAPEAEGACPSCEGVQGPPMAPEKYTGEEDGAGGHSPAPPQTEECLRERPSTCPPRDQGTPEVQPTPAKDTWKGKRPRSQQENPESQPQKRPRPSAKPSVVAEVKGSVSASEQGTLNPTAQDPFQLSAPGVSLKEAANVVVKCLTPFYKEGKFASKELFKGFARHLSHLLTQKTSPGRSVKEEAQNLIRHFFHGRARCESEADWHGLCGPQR
UniProt P04050: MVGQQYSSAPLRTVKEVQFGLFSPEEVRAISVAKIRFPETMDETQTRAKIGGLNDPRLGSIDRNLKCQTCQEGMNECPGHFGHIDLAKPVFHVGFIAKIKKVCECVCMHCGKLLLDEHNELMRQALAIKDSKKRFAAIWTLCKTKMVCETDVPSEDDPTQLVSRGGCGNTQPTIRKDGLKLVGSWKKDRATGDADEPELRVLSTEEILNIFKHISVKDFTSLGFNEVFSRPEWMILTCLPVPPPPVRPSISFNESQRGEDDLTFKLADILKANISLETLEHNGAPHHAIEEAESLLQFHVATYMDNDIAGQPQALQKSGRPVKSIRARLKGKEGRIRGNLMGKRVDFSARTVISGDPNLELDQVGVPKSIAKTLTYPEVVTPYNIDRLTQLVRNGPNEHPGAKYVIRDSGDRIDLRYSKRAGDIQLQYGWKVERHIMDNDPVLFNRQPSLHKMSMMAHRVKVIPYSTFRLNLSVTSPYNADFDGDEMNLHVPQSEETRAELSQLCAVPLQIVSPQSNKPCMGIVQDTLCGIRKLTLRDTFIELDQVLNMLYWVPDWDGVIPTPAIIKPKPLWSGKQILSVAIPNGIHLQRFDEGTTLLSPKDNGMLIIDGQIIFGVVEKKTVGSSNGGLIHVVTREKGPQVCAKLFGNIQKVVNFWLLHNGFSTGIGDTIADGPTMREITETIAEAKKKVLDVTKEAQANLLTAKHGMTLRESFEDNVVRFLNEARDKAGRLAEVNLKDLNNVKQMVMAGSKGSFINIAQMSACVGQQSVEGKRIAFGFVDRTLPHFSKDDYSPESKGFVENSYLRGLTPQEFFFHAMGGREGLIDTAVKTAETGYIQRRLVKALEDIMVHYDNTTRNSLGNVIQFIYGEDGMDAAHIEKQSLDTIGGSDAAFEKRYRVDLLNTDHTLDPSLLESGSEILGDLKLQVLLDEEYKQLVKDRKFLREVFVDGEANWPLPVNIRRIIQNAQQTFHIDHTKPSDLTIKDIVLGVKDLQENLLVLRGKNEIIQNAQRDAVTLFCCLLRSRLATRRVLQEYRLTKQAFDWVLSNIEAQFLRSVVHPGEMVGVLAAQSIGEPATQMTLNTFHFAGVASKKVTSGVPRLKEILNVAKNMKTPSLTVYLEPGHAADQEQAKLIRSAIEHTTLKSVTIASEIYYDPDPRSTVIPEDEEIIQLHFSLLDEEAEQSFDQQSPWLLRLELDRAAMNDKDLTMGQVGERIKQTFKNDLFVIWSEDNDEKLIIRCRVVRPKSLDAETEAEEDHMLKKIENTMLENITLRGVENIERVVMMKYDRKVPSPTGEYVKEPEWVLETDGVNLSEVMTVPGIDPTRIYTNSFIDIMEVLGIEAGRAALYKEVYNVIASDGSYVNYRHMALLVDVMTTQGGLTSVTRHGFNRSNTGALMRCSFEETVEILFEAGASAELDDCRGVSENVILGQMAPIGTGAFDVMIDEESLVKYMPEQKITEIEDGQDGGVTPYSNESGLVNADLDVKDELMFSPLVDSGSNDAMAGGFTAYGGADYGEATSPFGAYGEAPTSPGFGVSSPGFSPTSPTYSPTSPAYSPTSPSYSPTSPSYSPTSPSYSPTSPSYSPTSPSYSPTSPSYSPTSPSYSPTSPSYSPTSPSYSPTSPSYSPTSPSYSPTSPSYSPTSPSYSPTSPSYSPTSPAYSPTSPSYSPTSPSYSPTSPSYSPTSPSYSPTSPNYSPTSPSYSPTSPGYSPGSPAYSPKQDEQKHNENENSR

These are yes or no findings as the source states them, for the method shown. In cells and extracts the contact can be indirect. A result given as binding can be weak or reduced; the word gives no strength.

The experiment concerns the target human RECQL5-ID mutant, FLAG-tagged (GAL::RECQL5-ID) (human) (UniProt O94762). The experiment can be described thus: co-IP; whole cell extracts of yeast expressing FLAG-tagged RECQL5 constructs from the GAL1 promoter (galactose 4 h); precipitation with FLAG antibody on Dynabeads Protein A, 3 h at 4 °C; lysis buffer 50 mM Tris HCl pH 7.5, 100 mM NaCl, 1.5 mM MgCl2, NP40, DTT; blot for Rpb1.

In the case of “Rpb1 subunit of yeast RNA polymerase II (from UniProt P04050 1-1733)”, the binding result is reported as “binds”.
